Measured values published in PubChem BioAssay AID588590 (National Center for Advancing Translational Sciences (NCATS), 2011).
The whole screen tested about 390,000 compounds, of which about 4,000 (1%) were called active. The inconclusive results got no clear call from the source; some entries with a clear call stand among them for comparison. Calls come from the whole dose curve; as a rule, active = well fitted inhibition curve with a large enough effect; inconclusive = small, poorly fitted or top-dose-only effect, or another doubt; inactive = no such curve, though single readings can be large or run the other way. A potency beside an inconclusive call is a rough fit, not a confirmed value.

Chains of the proteins cited; added tags and fusions are not shown. Lines headed by an entry give the natural chain unless they say otherwise; changes in a name come on top.
UniProt Q9UNA4: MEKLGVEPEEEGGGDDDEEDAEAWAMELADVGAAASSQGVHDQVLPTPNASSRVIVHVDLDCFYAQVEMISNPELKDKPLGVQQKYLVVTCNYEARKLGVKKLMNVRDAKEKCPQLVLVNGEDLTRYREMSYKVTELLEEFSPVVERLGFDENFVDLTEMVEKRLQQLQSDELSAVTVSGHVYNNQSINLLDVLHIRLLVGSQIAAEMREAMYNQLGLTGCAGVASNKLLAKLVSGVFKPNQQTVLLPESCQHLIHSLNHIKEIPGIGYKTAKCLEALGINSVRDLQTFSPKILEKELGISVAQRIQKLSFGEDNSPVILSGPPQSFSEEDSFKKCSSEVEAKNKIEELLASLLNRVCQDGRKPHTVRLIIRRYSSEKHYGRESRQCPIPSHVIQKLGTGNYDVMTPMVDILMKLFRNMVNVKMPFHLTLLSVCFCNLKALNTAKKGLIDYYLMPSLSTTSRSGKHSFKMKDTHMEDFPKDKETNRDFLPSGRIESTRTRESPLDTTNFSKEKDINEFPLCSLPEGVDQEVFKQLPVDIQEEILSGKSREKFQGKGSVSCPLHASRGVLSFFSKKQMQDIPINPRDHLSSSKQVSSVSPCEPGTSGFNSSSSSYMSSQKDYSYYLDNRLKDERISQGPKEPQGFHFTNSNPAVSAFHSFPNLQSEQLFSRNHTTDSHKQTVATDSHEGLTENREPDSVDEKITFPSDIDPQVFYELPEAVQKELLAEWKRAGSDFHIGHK

Molecular target: DNA polymerase iota (Homo sapiens) (UniProt Q9UNA4)
Experiment: qHTS for Inhibitors of Polymerase Iota
Details: Pol iota fluorescent replication assay, 10 min; series mostly up to 115 µM; activity, negative = inhibition: at the top concentration
In short: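 Pol iota at 10 nM preincubated 15 min with compounds at room temperature; reaction started with fluorescent substrate, 50 nM final. Fluorescence read kinetically at 0 and 10 min; buffer-only wells as negative control.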
Potency is the fitted concentration of half-maximal effect.

Row | Structure (SMILES) | Potency | activity, negative = inhibition
1 | Cc1noc(C)c1CSc1nnc(-c2cc(Cl)ccc2Cl)n1N | inconclusive: 31.6 µM [inhibitor, partial curve, poor fit] | 
2 | COC(=O)Cc1c(C(=O)OC)nnn1-c1ccc(OC)cc1 | inconclusive: 89.1 µM [inhibitor, single point] | 
3 | O=C(COC(=O)c1ccc([N+](=O)[O-])s1)Nc1ncc(C(F)(F)F)cc1Cl | inconclusive: 44.7 µM [inhibitor, partial curve] | 
4 | COc1ccccc1C(=O)Nc1ccc(S(=O)(=O)Nc2nc(C)cc(C)n2)cc1 |  | inactive: -20.8%
5 | Cc1ccc2ccc3c(c2n1)NS(=O)(=O)c1ccccc1-3 | inconclusive: 15.8 µM [inhibitor, partial curve, poor fit] | 
6 | CC(SC1=NS(=O)(=O)c2ccccc21)C(=O)O (stereo not given) |  | inactive: 5.28%
7 | Cc1ccc(C(=O)O/N=C(\N)c2ccccn2)c(Cl)c1 |  | inactive: 6.46%
8 | COc1cccc(OCC(O)CN2CCN(CCN3C(=O)c4cccc5cccc(c45)C3=O)CC2)c1 (stereo not given) | inconclusive: 22.4 µM [inhibitor, full curve] | 
9 | CC(=O)N1CCc2c(sc3c2c(=O)n(Cc2ccccc2)c(=O)n3Cc2ccccc2Cl)C1 |  | inactive: -0.815%
10 | Cc1ccc(/C=C/c2onc(C)c2S(=O)(=O)N2CCC(C(=O)N3CCN(c4cc(C)ccc4C)CC3)CC2)cc1 |  | inactive: 3.3%
11 | O=C(Nc1ccc(Br)cc1F)c1cnn2c1NC(=C1CC1)C=C2C(F)F | inconclusive: 89.1 µM [inhibitor, single point] | 
12 | Cc1ccc(Cl)cc1N1CCN(C(=O)COc2cc(=O)n(C)c3ccccc23)CC1 |  | inactive: 42.6%
13 | CC(=O)N(c1ccc2oc(=O)sc2c1)S(=O)(=O)c1cccs1 | inconclusive: 2 µM [inhibitor, full curve, poor fit] | 
14 | O=Cc1cn[nH]c1-c1cccc([N+](=O)[O-])c1 |  | inactive: -14.1%
15 | CCCCC1=CC2=CC(=O)C(C)(OC(=O)C3CCCC3)C(=O)C2=CO1 (stereo not given) | active: 50.1 µM | 
16 | CCOC(=O)c1sc(-n2[nH]c(C)cc2=O)nc1C | inconclusive: 39.8 µM [inhibitor, full curve] | 
17 | CN(Cc1ccco1)c1ncnc2ccc(-c3ccoc3)cc12 | active: 28.2 µM | 
18 | Cc1ccccc1OCC(=O)OCC(=O)c1c[nH]c2ccccc12 |  | inactive: 28.1%
19 | CC(C)CC1NC(=O)N(CC(=O)NC2CCCc3ccccc32)C1=O (stereo not given) | inconclusive: 20 µM [inhibitor, single point] | 
20 | COc1ccc(C(=O)N2CCN(Cc3ccccc3)CC2)cc1[N+](=O)[O-] | inconclusive: 39.8 µM [inhibitor, single point] | 

Row | Structure (SMILES) | Potency | activity, negative = inhibition
21 | COc1ccc(NC(=O)C2CCCCN2S(=O)(=O)c2ccc(F)cc2)cc1 (stereo not given) | inconclusive: 89.1 µM [inhibitor, partial curve, poor fit] | 
22 | O=c1cc(CN2CCc3ccccc32)c2ccc(O)cc2o1 | inconclusive: 63.1 µM [inhibitor, partial curve, poor fit] | 
23 | COc1ccc(Nc2cc(C)c3cc(NC(=O)COc4cccc(C)c4)ccc3n2)cc1 |  | inactive: 33.7%
25 | COCCN(CC(=O)Nc1cccc(C)c1C)C(=O)c1cc2c(s1)CCC2 | active: 89.1 µM | 
26 | CCc1cc(=O)oc2c(C)c(OCC(=O)Nc3ccc(S(=O)(=O)N(CC)CC)cc3)ccc12 | inconclusive: 89.1 µM [inhibitor, single point] | 
27 | CCOC(=O)c1c(C)oc(NC(=O)CCl)c1C(=O)OCC | inconclusive: 63.1 µM [inhibitor, single point] | 
28 | CC(C)(C)n1nnnc1C(c1cccs1)N(Cc1ccc(Cl)cc1)CC1CCCO1 (stereo not given) | inconclusive: 31.6 µM [inhibitor, single point] | 
29 | Cc1cccc(Cn2c(SCC(=O)Nc3ccccc3)nc3c2c(=O)[nH]c(=O)n3C)c1 | inconclusive: 70.8 µM [inhibitor, single point] | 
30 | NC(=O)c1c(NC(=O)CSc2nnc(-c3ccco3)n2N)sc2c1CCCC2 | inconclusive: 14.1 µM [inhibitor, partial curve] | 
31 | Oc1oc(-c2cccc3ccccc23)nc1/C=N/c1nccs1 | inconclusive: 10 µM [inhibitor, full curve, poor fit] | 
32 | O=C(Nc1nnc(S(=O)(=O)N2CCCCC2)s1)c1cccc(Br)c1 | inconclusive: 7.94 µM [inhibitor, single point] | 
33 | Cc1nnc(N2C(=O)c3oc4ccccc4c(=O)c3C2c2ccco2)s1 (stereo not given) | inconclusive: 70.8 µM [inhibitor, partial curve, poor fit] | 
34 | CC(O)CNc1nc(N)[nH]c(=O)c1N=Nc1ccccc1 (stereo not given) | inconclusive: 79.4 µM [inhibitor, single point] | 
35 | COc1ccc(Cl)cc1S(=O)(=O)Nc1cccc(C(=O)O)c1 | inconclusive: 56.2 µM [inhibitor, partial curve, poor fit] | 
36 | CCCCn1c(=O)c2ccccc2n2c(=S)[nH]nc12 |  | inactive: 136%
37 | O=C1NCC2=C1C(c1ccccc1)Nc1ccccc1N2 (stereo not given) | inconclusive: 35.5 µM [inhibitor, partial curve, poor fit] | 
38 | O=[N+]([O-])c1ccccc1S(=O)(=O)Nc1ccc(S(=O)(=O)Nc2nccs2)cc1 | inconclusive: 56.2 µM [inhibitor, partial curve, poor fit] | 
39 | CC(Oc1ccccc1Cl)C(=O)Nc1ccc(S(=O)(=O)N2CCN(C)CC2)cc1 (stereo not given) | inconclusive: 15.8 µM [inhibitor, partial curve, poor fit] | 
40 | NS(=O)(=O)c1ccc(CCNC(=O)CSc2nc3ccsc3c(=O)n2CC(=O)O)cc1 | inconclusive: 89.1 µM [inhibitor, partial curve, poor fit] | 

Compounds listed so far that contain bromine, in the order listed:
Row | Structure (SMILES) | Potency | activity, negative = inhibition
11 | O=C(Nc1ccc(Br)cc1F)c1cnn2c1NC(=C1CC1)C=C2C(F)F | inconclusive: 89.1 µM [inhibitor, single point] | 
32 | O=C(Nc1nnc(S(=O)(=O)N2CCCCC2)s1)c1cccc(Br)c1 | inconclusive: 7.94 µM [inhibitor, single point] | 
